Publication PMC4626869, “Subcellular trafficking of guanylyl cyclase/natriuretic peptide receptor-A with concurrent generation of intracellular cGMP” (Bioscience Reports, 2015)
No constants are given. Whether binding was seen depends on the method and setting. In cells and extracts the contact can be indirect. Some results given as binding are weak or reduced against the parent protein; the word gives no strength.

By UniProt entry, the sequences of proteins in these tests, tags left out. Residues count along the entry.
UniProt Q15075: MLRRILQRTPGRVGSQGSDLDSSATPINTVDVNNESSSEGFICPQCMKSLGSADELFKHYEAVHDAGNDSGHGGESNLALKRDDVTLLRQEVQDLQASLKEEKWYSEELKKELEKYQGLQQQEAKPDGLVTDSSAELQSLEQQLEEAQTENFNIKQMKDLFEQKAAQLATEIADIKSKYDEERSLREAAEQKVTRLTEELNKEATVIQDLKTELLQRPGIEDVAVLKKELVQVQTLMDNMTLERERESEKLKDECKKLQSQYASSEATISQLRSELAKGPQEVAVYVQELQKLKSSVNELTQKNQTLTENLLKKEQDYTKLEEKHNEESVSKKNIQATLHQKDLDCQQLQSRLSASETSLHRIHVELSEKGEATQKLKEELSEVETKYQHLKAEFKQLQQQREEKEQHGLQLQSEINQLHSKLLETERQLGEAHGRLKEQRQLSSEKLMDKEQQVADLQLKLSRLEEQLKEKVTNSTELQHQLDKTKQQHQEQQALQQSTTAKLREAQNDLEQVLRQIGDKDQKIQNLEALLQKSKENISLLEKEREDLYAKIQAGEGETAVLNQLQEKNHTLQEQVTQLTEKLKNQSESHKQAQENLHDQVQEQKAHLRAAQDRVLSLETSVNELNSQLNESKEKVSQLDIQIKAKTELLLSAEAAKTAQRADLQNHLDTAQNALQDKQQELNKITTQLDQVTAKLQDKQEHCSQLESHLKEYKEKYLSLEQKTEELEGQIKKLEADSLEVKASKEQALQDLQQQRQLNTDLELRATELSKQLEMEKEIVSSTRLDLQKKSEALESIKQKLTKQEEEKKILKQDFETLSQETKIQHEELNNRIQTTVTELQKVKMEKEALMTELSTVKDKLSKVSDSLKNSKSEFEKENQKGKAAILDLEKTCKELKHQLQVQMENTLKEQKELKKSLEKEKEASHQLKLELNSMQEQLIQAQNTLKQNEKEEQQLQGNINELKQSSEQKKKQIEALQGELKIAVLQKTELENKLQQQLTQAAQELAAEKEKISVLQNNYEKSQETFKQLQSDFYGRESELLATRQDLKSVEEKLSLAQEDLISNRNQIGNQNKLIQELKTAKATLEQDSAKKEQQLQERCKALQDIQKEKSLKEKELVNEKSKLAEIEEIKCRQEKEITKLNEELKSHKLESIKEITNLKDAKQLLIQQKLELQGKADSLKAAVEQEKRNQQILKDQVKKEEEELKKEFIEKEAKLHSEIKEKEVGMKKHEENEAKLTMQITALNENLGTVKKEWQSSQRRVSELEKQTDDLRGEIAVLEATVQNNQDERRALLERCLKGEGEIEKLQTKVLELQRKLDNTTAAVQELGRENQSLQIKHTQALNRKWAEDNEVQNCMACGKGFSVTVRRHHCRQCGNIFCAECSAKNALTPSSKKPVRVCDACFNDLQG
UniProt P18293, residues 29-1057: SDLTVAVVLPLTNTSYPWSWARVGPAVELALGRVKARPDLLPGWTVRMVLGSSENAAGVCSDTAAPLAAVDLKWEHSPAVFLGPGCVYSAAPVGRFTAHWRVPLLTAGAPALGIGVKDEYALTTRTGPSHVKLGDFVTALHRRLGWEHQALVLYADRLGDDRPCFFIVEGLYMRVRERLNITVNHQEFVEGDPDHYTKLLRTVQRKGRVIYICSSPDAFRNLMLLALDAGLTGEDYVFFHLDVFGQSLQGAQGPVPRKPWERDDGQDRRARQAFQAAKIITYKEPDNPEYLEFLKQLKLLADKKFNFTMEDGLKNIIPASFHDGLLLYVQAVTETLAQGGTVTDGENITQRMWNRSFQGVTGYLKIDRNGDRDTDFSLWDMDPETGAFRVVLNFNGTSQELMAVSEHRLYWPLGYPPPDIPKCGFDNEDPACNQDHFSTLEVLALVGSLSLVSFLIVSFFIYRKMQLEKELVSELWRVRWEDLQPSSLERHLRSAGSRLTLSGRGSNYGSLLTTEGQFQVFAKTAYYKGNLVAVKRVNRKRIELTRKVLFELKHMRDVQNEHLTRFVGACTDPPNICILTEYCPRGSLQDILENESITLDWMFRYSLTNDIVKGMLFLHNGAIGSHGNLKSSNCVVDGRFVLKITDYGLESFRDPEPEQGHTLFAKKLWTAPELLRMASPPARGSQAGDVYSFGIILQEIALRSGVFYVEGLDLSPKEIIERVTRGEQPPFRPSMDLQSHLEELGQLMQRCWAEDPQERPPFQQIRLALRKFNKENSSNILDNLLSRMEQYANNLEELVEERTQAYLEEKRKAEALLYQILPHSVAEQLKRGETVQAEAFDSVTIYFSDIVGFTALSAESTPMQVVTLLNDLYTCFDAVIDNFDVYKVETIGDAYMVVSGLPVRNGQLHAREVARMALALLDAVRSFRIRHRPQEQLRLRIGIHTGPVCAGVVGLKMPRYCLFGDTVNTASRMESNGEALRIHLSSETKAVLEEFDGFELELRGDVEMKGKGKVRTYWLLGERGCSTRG

Experiments:
[1] = target: early endosome antigen-1 (EEA-1) (human (endogenous in HEK-293)) (UniProt Q15075); assay: co-IP; HEK-293 cells stimulated with 100 nM ANP for 5, 10, 15 and 30 min; 500 μg of DDM-solubilized membranes or cytosolic fraction incubated with 4 μg of primary antibody (pan-cadherin, EEA-1, LAMP-1 or Rab 11) and protein A/G agarose at 4°C; immunoblot of NPRA
[2] = target: T1, lysosome-associated membrane protein-1 (LAMP-1) (human (endogenous in HEK-293)) (UniProt P11279); assay: as above
T1 sequence: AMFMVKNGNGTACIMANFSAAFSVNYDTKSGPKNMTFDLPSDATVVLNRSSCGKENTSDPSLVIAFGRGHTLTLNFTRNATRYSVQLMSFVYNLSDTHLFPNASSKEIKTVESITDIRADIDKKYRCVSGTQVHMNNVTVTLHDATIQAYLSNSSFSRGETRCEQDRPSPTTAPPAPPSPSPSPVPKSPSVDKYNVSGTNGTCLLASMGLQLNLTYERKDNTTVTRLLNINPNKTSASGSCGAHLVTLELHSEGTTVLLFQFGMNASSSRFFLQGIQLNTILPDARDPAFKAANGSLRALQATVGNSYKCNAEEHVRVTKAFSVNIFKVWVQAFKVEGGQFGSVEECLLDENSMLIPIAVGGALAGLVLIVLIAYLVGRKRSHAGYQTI

enhanced GFP-tagged guanylyl cyclase/natriuretic peptide receptor-A (eGFP–NPRA fusion protein) (from UniProt P18293 29-1057)
binding [1]: binds | binding [2]: binds
